## Percent effect of library compounds

Values are the deposited “Percent Effect”, in %. How 0% and 100% were set is not recorded. Most values in the screen are low, and negative values occur. Compounds were drawn at random from those tested, without regard to their results.

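Growth of Mycobacterium tuberculosis over 4 days (cholesterol / DPPC medium with tyloxapol); the read-out is not stated. Tested at 500 µM. Higher reads as more growth inhibition (inferred: compounds with an IC50 in retests scored well above the rest). About 18,000 compounds were tested under these conditions; 5% (about 900) showed 50% or more at least once.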

Compound	percent effect
N#Cc1ccsc1C(=O)N1CCN(CCO)CC1	4.007%
COCCNC(=O)CN1CCCC(C)C1 (configuration not stated)	3.845%
NC1CCN(S(=O)(=O)c2ccccc2)CC1	-13.3%
CCCC(C)CS(=O)(=O)NCc1ccncc1 (configuration not stated)	59.84%
CN1CCN(CC2CCCNC2)CC1 (configuration not stated)	4.825%
COC(=O)c1ccc(C(=O)N(C)C2(C#N)CCC2)cc1	0.5548%
CC(C(=O)N1CCOCC1)S(=O)(=O)c1ccccn1 (configuration not stated)	2.49%
CS(=O)(=O)c1ccc(C2CNCCO2)cc1 (configuration not stated)	-5.365%
COc1ccc(OCC(=O)N2CCN(C)CC2)cc1	1.789%
Nc1cnccc1CO	-5.717%
CC(C)C(NC(=O)CS(C)(=O)=O)c1ccccn1 (configuration not stated)	-8.18%
Cc1ccc(C(=O)N2CCCC2(C)C)c(C)n1	-0.3477%
CC(=O)NC(C)c1cccc(N2CCCC2=O)c1 (configuration not stated)	3.519%
Nc1nnc(SCc2ccccc2F)s1	54.84%
O=C(NC1CCNC1)C1CCC1 (configuration not stated)	-9.25%
CS(=O)(=O)NCC1CCCCC1	20.78%
CCN(C(=O)NC(C)C)C(C)CS(=O)(=O)CC (configuration not stated)	-17.52%
Cc1cc(CN)[nH]n1	21.01%
CCOc1cccc(CSC(C)CO)n1 (configuration not stated)	36.48%
CC(=O)Nc1ccc(CC(=O)Nc2cc(C)on2)cc1	-1.243%
CCS(=O)(=O)N1CCC(C(=O)NCCN(C)C)CC1	5.191%
NCC1CCN(S(=O)(=O)C2CC2)CC1	1.695%
CC(Sc1ncc2ccccn12)C(=O)NC(N)=O (configuration not stated)	0.7355%
NCCN1C(=O)COc2ccccc21	9.712%
O=S1(=O)CCC(Oc2ccc(Br)cc2)C1 (configuration not stated)	-3.692%
NS(=O)(=O)N1CCC(NC(=O)CC2CCCCC2)CC1	1.625%
CN(C)C(=O)c1ccc(Cl)c(S(=O)(=O)N2CCCC2)c1	18.48%
O=C(CCCc1cn[nH]c1)N[C@@H]1C[C@@H]2OCC[C@@H]21	-1.052%
CC(C)N1CC2CCC(C1)C2N (configuration not stated)	-17.35%
COC(=O)CCCNC(=O)COc1cccc(OC)c1	31.07%
COCC1CCN(C(=O)c2cc(C3CC3)on2)CC1	61.28%
CO[C@H]1CN(C(C)C)C[C@@H]1NC(=O)c1ccoc1	6.842%
O=C(COc1ccccc1F)NCCc1cccnc1	15.07%
COc1ccc(CN(C)C(=O)C2CC2)cc1F	80.87%
N#Cc1cc(F)ccc1NC(=O)N1CCC(O)CC1	2.13%
CC1(C)CC(CCN)CCO1 (configuration not stated)	23.51%
NC(=O)C1CCN(Cc2csc(Br)c2)CC1	2.988%
COc1cnccc1N1CCNCC1	-22.44%
COc1cc(NC(=O)CNC(C)C)cc(OC)c1	12.64%
COc1cccc(NC(=O)CN2CCN(C)CC2)c1	9.115%
Cc1cc(C)c2c(N[C@@H]3CC[C@@H](N)C3)ncnc2n1	-12.56%
CCn1nnc2cc(C(=O)NCCCC#N)ccc21	0.3474%
Cc1nc(C)c(C(=O)N2CC[C@H](CO)[C@H](O)C2)s1	-6.809%
CNCC(=O)NC1CC(=O)N(c2ccccc2OC)C1 (configuration not stated)	6.697%
CC(C)C(=O)NCCNCc1cccc(C#N)c1	0.4307%
CN1CCN(C(=O)C2COc3ccccc3O2)CC1=O (configuration not stated)	2.328%
N#CCCCS(=O)(=O)N1CCCC1c1ccco1 (configuration not stated)	1.835%
COc1ccc2cc(S(N)(=O)=O)ccc2c1	-9.197%
CC1CCCN(CCCN)C1 (configuration not stated)	-23.4%
CCn1nc(C)cc1C(=O)N1CCN=C1SC	-5.736%
Cc1ccc(CN2CCOC(CCO)C2)c(F)c1 (configuration not stated)	47.49%
Cc1cccc(C(C)(C)N)c1	-20.89%
CN1N=C(C(=O)NCCCN(C)S(C)(=O)=O)CCC1=O	-4.313%
CN(C)C(=O)CN1CCCC(CO)(CC2CC2)C1 (configuration not stated)	2.499%
O=C(NCc1ccnc(NC2CC2)c1)C1CCCCC1	-9.588%
Cc1ncccc1NC(=O)c1cccc(S(C)(=O)=O)c1	1.73%
CC(C)n1cnnc1CCNC(=O)CCC(F)(F)F	-4.963%
CN(CC(=O)NC1CCCCNC1=O)Cc1ccco1 (configuration not stated)	-23.37%
OCC1(CNCc2ccccc2)CC1	-10.43%
CNS(=O)(=O)c1ccc(C(=O)Nc2ccc(F)cc2)o1	43.9%
CNC(=O)CCN1C(=O)c2ccccc2C1=O	5.424%
Cc1n[nH]cc1CNCCS(=O)(=O)Cc1ccccc1	8.805%
CC(Cn1cccn1)NC(=O)CN1CCOC1=O (configuration not stated)	-9.844%
COc1cncc(C(=O)Nc2ccc(F)cc2F)c1	-5.256%
COCCCN1CCC(CNc2ncncn2)C1 (configuration not stated)	11.9%
COC(=O)c1ccc(C(=O)NC2CC2)nc1	7.509%
N#CC1(C(=O)NCc2ccncc2)CCOCC1	5.541%
O=C(CCc1ccccn1)NCCn1cccc1	15.4%
CSc1nc2sccc2c(=O)n1C	9.475%
NCC1CCCC(=O)N1 (configuration not stated)	-3.654%
CNC(=O)CCN1CCCSCC1	12.53%
CCSCCC(C)N(C)C(=O)c1ccn(C)c(=O)c1 (configuration not stated)	5.676%
OC1(CNCCCn2ncc3ccccc32)CCNC1 (configuration not stated)	16.55%
NCCCc1ccc(O)cc1	4.551%
CCN(Cc1c(OC)ccc(F)c1F)[C@H]1COC[C@@H]1O	20.44%
CC(C)NC(C)c1nnc2ccccn12 (configuration not stated)	-5.686%
CN(C)S(=O)(=O)Nc1ccc2c(c1)C(=O)CCC2	23.38%
O=C1CCN(Cc2cc(Br)cc3c2OCC3)CCN1	-15.88%
CN(CC(=O)NC(N)=O)C1CCCC1	8.334%
Cc1ccc(C(=O)N2CCC3(CCCCO3)CC2)cn1	23.12%
Cc1ccc[nH]c1=O	0.2842%
O=C(c1ccccc1)N1CCN(Cc2ccco2)CC1	29.11%
CC(CNC(=O)C1=NNC(=O)CC1)Oc1cccnc1 (configuration not stated)	1.063%
Cc1cnn(CC(=O)NCCC2CCOC2)c1 (configuration not stated)	12.72%
NC[C@@H]1CCO[C@H]1c1ccc(F)cc1	11.22%
CC(=O)N1c2ccccc2N(C)C(=O)C1(C)C	11.36%
O=C(c1c(F)cccc1Cl)N1CCNCC1	0.6377%
NCCc1nccn1Cc1ccccc1	28.77%
O=C(C1CCCO1)N1CCN(c2cncc(Cl)n2)CC1 (configuration not stated)	17.6%

The first 8 entries again:

Result for N#Cc1ccsc1C(=O)N1CCN(CCO)CC1 was 4.007%.
Result for COCCNC(=O)CN1CCCC(C)C1 (configuration not stated) was 3.845%.
Result for NC1CCN(S(=O)(=O)c2ccccc2)CC1 was -13.3%.
Result for CCCC(C)CS(=O)(=O)NCc1ccncc1 (configuration not stated) was 59.84%.
Result for CN1CCN(CC2CCCNC2)CC1 (configuration not stated) was 4.825%.
Result for COC(=O)c1ccc(C(=O)N(C)C2(C#N)CCC2)cc1 was 0.5548%.
Result for CC(C(=O)N1CCOCC1)S(=O)(=O)c1ccccn1 (configuration not stated) was 2.49%.
Result for CS(=O)(=O)c1ccc(C2CNCCO2)cc1 (configuration not stated) was -5.365%.

Source: ChEMBL document CHEMBL3988442, “University of Dundee, Small-Polar-MMV Screening Library” (2021).